Test results published in patent US20250090875A9, “IMMUNOSTIMULATORY COMPOUNDS AND CONJUGATES” (Seagen Inc., priority 2021, published 2025).
Some results were stated once for a whole list of compounds, not compound by compound.

Tested on: primary human PBMCs
Experiment: Cytokine induction in primary human PBMCs by small molecule TLR7/8 agonists (Luminex)
Format: cell-based
Settings: average of 3 donors, FIG. 2
Protocol: This example covers dose dependent human immune cell activation by small molecule TLR7/8 agonists. Primary human PBMCs were isolated from peripheral whole blood from human donors and were subjected to treatment with increasing concentrations of the agonists diluted in PBS. Cell culture supernatants were harvested 24 h after treatment and analyzed for induction of cytokines via multiplex ELISAs (Luminex).
Several small molecule TLR7/8 agonists were assessed for their ability to activate human immune cells in a dose dependent manner. Primary human PBMCs were isolated from peripheral whole blood from human donors and were subjected to treatment with increasing concentrations of the agonists diluted in PBS. 24 h after treatment cell culture supernatants were harvested and analyzed for induction of cytokines via multiplex ELISAs (Luminex).

CCCCc1nc2c(N)nc3cc(C(=O)OC)ccc3c2n1Cc1ccc(CN(C)C)cc1 [S18a] was tested, and the “concentration exhibiting activity (IFNA, IL1β, MCP3, TNFα induction)” value was under 0.1 µM.

In the case of CCCCc1nc2c(N)nc3cc(C(=O)OC)ccc3c2n1Cc1ccc(CN)cc1 [S8a], the “concentration exhibiting activity (IFNA, IL1β, MCP3, TNFα induction)” value is reported as under 0.1 µM.
